The other results are listed elsewhere or left out. These are further read-outs of the screen, such as a control signal, another cell line or another target. No call is given for them. The list favours compounds with an active or inconclusive main result. Potencies come from curve fits of mixed quality, noted in brackets.
Assay: IkB Signaling
Conditions: ABC-DLBCL IkBa-CBG/CBR dual luciferase ratio (green luciferase fused to IkBa over red control in OCI-Ly3 lymphoma cells), 4 h
Outline: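 Luminescence ratio of IκBα-fused green versus native red beetle luciferase in OCI-Ly3 cells, 4 h post-doxycycline with compound; red signal alone, scaled from basal (0%) to zero light (-100%), flagged nonspecific or cytotoxic effects.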

[1] = measured here: control luc red channel unless noted

O=c1cc(-c2ccccc2)nc(SCc2nc(-c3ccc(Cl)cc3)no2)[nH]1
AC50 [1]: 15.8 µM [rising, partial curve]

CCN1CCN(C(=O)c2cnn(-c3cccc(Cl)c3)c2C2CCN(C(=O)OC(C)(C)C)CC2)CC1
AC50 [1]: 20 µM [falling, single point]

CCCCn1nnnc1SCC(=O)Nc1sc2c(c1C#N)CCCC2
AC50 [1]: 31.6 µM [falling, single point]

CN1CCN(c2ccccc2NC(=O)c2ccc(OCc3ccccc3)cc2)CC1
AC50 [1]: 15.8 µM [falling, partial curve]

Cc1cccc(NC(=O)c2ccc3snnc3c2)c1C
AC50 [1]: 39.8 µM [falling, single point]

N#C[C@@H]1[C@@H]2C(=O)N(c3ccc4c(c3)OCCO4)C(=O)[C@@H]2C2c3ccccc3C=CN21 (some centres undefined)
AC50 [1]: 10 µM [falling, partial curve]

Cc1cccc(NC(=O)c2cc3c(=O)n4cccc(C)c4nc3s2)c1C
AC50 [1]: 0.0794 µM [rising, partial curve, poor fit]

COCC(C)NC(=O)c1cc(-c2ccc(O)cc2)on1 (centres undefined)
AC50 [1]: 15.8 µM [falling, partial curve]

CC(C)CN(CCCNC(=O)CN1N=C(c2ccc(Cl)cc2)CCC1=O)CC(C)C
AC50 [1]: 39.8 µM [falling, single point]

Cc1ccc(OCC(=O)Nc2cccc(-c3nc4ccccc4s3)c2)cc1
AC50 [1]: 15.8 µM [falling, partial curve]

CCOc1ccc(NC(=O)C2CC(=O)NC(=Nc3ccc(Cl)c(Cl)c3)S2)cc1 (centres undefined)
AC50 [1]: 7.94 µM [falling, full curve]

Cc1c(C(=O)NCc2ccccc2)sc2nc3n(c(=O)c12)CCCCC3
AC50 [1]: 2 µM [rising, partial curve]

CCOC(=O)c1ccc(NC(=O)C2CCCN(c3ncnc4onc(-c5ccc(F)cc5)c34)C2)cc1 (centres undefined)
AC50 [1]: 31.6 µM [falling, single point]

COC(=O)C(Cc1c[nH]c2ccccc12)NC(=O)COc1cccc(C)c1 (centres undefined)
AC50 [1]: 25.1 µM [falling, single point]

COCCNC(=O)CCn1c(=O)c2cc(OC)c(OC)cc2n(CC(=O)Nc2ccc(Cl)cc2F)c1=O
AC50 [1]: 12.6 µM [falling, partial curve, poor fit]

O=C(COc1ccccc1)N1CCN(c2nnc(-c3ccccc3)c3ccccc23)CC1
AC50 [1]: 12.6 µM [falling, partial curve]

O=C(COc1ccccc1F)Nc1ccc2oc(-c3cccc(Cl)c3)nc2c1
AC50 [1]: 0.631 µM [rising, full curve]

Cc1ccc(-c2ccc(=O)n(CC(=O)Nc3ccc(C)cc3Cl)n2)cc1
AC50 [1]: 20 µM [falling, partial curve]

O=C(CSc1nnc(-c2cnccn2)n1Cc1ccco1)Nc1ccc(Br)cc1
AC50 [1]: 12.6 µM [falling, partial curve]

COc1ccc(C(=O)Nc2ccc3oc(-c4cccnc4)nc3c2)cc1
AC50 [1]: 7.94 µM [falling, partial curve]

Clc1cccc(N2CCN(c3nc4ccccc4n4nnnc34)CC2)c1
AC50 [1]: 0.501 µM [falling, full curve]

O=C(NCc1ccccc1)C1CCCN(S(=O)(=O)c2cccc3nsnc23)C1 (centres undefined)
AC50 [1]: 5.01 µM [falling, full curve, poor fit]

O=C1CN(C(=O)COc2ccc(Cl)cc2)C(c2ccccc2)c2cc(Br)ccc2N1 (centres undefined)
AC50 [1]: 20 µM [falling, partial curve]

CCCCCOC(=O)c1[nH]c2c(c1C)C(=O)C(C(=O)OC)C(C)C2 (centres undefined)
AC50 [1]: 25.1 µM [falling, partial curve]

CCOc1ccc(NC(=O)CN2C(=O)CC(C)Sc3ccccc32)cc1 (centres undefined)
AC50 [1]: 15.8 µM [falling, single point]

CCn1cc(CCC(=O)NCc2ccc(C)cc2)c2ccccc21
AC50 [1]: 39.8 µM [falling, single point]

CCOC(=O)Cc1csc(NC(=O)COc2ccc(N(C)S(=O)(=O)c3cccs3)cc2)n1
AC50 [1]: 10 µM [falling, partial curve]

COc1cc2c(=O)n(Cc3ccccc3Cl)c(=O)n(CC(=O)Nc3ccc(C)c(C)c3)c2cc1OC
AC50 [1]: 39.8 µM [falling, partial curve]

CCC1CN(C(=O)N2CCC(C(=O)NCc3ccc(N(C)C)cc3)CC2)c2ccccc2O1 (centres undefined)
AC50 [1]: 12.6 µM [falling, partial curve]

O=C(Nc1nc(-c2ccccn2)cs1)C1COc2ccccc2O1 (centres undefined)
AC50 (measured here: IkB-luc green channel): 3.98 µM [rising, partial curve]
AC50 (measured here: control luc red channel): 7.94 µM [falling, partial curve]

O=C(C1CCCN(S(=O)(=O)c2ccc(F)cc2)C1)N(Cc1cccs1)C1CC1 (centres undefined)
AC50 [1]: 25.1 µM [falling, partial curve]

Cc1cc(N2CCC(C(=O)Nc3ccc(F)cc3)CC2)nc(-c2ccccc2)n1
AC50 [1]: 25.1 µM [falling, partial curve]

CCCOc1cccc(C(=O)Nc2cccc(-c3nc4ncccc4o3)c2C)c1
AC50 [1]: 5.01 µM [falling, partial curve]

CCn1cc2nc(SCC(=O)Nc3ccc(OC)c(OC)c3)n(Cc3ccc(Cl)cc3)c(=O)c2n1
AC50 [1]: 20 µM [falling, partial curve]

Cc1cn2c(=O)cc(COC(=O)c3cccc(NC(=O)c4ccc(C(C)(C)C)cc4)c3)nc2s1
AC50 [1]: 3.16 µM [falling, full curve]

Cc1c(C(=O)NCc2ccccc2Cl)sc2nc3n(c(=O)c12)CCCCC3
AC50 [1]: 2 µM [falling, full curve]

CC(=O)c1cccc(NC(=O)C2CCN(C(=O)c3cnn(-c4ccccc4)c3-n3cccc3)CC2)c1
AC50 [1]: 20 µM [falling, single point]

Cc1ccccc1-c1nc2scc(CCNS(=O)(=O)c3ccccc3)n2n1
AC50 [1]: 12.6 µM [falling, partial curve]

Cc1nn2c(=O)cc(COC(=O)c3cccc(NC(=O)CCc4ccccc4)c3)nc2s1
AC50 [1]: 5.01 µM [falling, partial curve]

O=C(Cn1cc(SCc2ccc(C(F)(F)F)cc2)c2ccccc21)N1CCOCC1
AC50 [1]: 15.8 µM [falling, partial curve]

O=C(NCc1ccccc1)c1cc2sccc2n1Cc1ccc(Cl)cc1
AC50 [1]: 3.98 µM [falling, partial curve, poor fit]

Cc1ccccc1NS(=O)(=O)c1ccc2[nH]cc(C(=O)N(C)Cc3ccco3)c(=O)c2c1
AC50 [1]: 12.6 µM [falling, partial curve]

Cc1ccc2occ(CC(=O)N(Cc3ccccc3Cl)C3CCS(=O)(=O)C3)c2c1 (centres undefined)
AC50 [1]: 25.1 µM [falling, single point]

O=C(CSc1oc(-c2ccccc2)nc1S(=O)(=O)c1ccc(Cl)cc1)Nc1ccc(F)cc1
AC50 [1]: 25.1 µM [falling, partial curve]

Cc1cc(OCC(=O)Nc2ccc3c(c2)OCCO3)ccc1Cl
AC50 [1]: 20 µM [falling, partial curve]

Cc1ccc(Cn2cc(CCC(=O)NC3CCC(C)CC3)c3ccccc32)cc1 (centres undefined)
AC50 [1]: 7.94 µM [falling, partial curve]

CC1CCC(Nc2nc3c(-c4ccc(Cl)cc4)nnn3c3ccccc23)CC1 (centres undefined)
AC50 [1]: 1.26 µM [falling, full curve]

Cc1c(OCc2ccc(C(=O)O)o2)ccc2c3c(c(=O)oc12)CCC3
AC50 [1]: 3.16 µM [falling, full curve]

Cc1cc(=O)[nH]c2nnc(SCc3ccc(F)cc3)n12
AC50 [1]: 6.31 µM [rising, single point]

O=C(CC(c1cccs1)N1Cc2ccccc2C1=O)Nc1ccc(F)c(F)c1 (centres undefined)
AC50 [1]: 5.01 µM [falling, partial curve, poor fit]

CCOC(=O)c1ccc(-n2c(CCC(=O)O)ccc2-c2ccc(Br)cc2)cc1
AC50 [1]: 15.8 µM [falling, partial curve]

O=c1cc(-c2ccc(Cl)c(Cl)c2)[nH][nH]1
AC50 [1]: 6.31 µM [falling, partial curve]

COc1ccc(CC(=O)Nc2sc3c(c2C(=O)Nc2cccc(Cl)c2)CCCCC3)cc1
AC50 [1]: 7.94 µM [falling, partial curve, poor fit]

CCn1cc(Br)c(C(=O)Nc2ccc(C(=O)OC(C)C)cc2)n1
AC50 [1]: 25.1 µM [falling, single point]

CC(C)Oc1ccc(CNC(=O)CCCN2C(=O)CCn3nc(-c4cccn4C)cc32)cc1
AC50 [1]: 20 µM [falling, partial curve]

O=C(c1ccco1)n1nc(-c2ccccc2)nc1NCc1ccc(Cl)cc1
AC50 [1]: 0.1 µM [rising, full curve]

Cc1nn(-c2ccccc2)c2c1N(CCCC(=O)NCc1ccc(N(C)C)cc1)C(=O)CS2
AC50 [1]: 15.8 µM [falling, partial curve]

CCC(=O)N1c2ccccc2CC1C(=O)N1CCN(c2cccc(Cl)c2)CC1 (centres undefined)
AC50 [1]: 12.6 µM [falling, partial curve]

COc1cccc(-c2nc(CS(=O)(=O)CC(=O)N3CCc4ccccc4C3)c(C)o2)c1
AC50 [1]: 12.6 µM [falling, partial curve]

CC(C)Cc1nnc(NC(=O)CCN2C(=O)c3ccccc3C2=O)s1
AC50 [1]: 10 µM [falling, partial curve]

COc1cc(-c2nc(-c3ccccn3)no2)cc(OC)c1OC
AC50 [1]: 7.94 µM [falling, full curve]

COc1ccc2occ(C(=O)c3coc4ccc(O)c(CN(C)C)c34)c2c1
AC50 [1]: 10 µM [falling, partial curve]

Cc1nn2c(=O)cc(COC(=O)c3ccc(NC(=O)c4cccc(Br)c4)cc3)nc2s1
AC50 [1]: 2.51 µM [rising, partial curve]

— PubChem BioAssay AID445 (National Center for Advancing Translational Sciences (NCATS), 2006)
